This assay deals with T1, GFP-S100A11 (S100 Ca2+-binding protein A11) (human) (UniProt P31949).
T1 sequence: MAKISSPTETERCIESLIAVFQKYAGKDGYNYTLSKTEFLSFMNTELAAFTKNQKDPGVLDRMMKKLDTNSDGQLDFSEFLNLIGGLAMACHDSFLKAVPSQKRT
Description: co-IP.

No constants are given. Whether binding was seen depends on the method and setting. Binding seen in cells or lysates may run through a third protein. A result given as binding can be weak or reduced; the word gives no strength. Where a sequence is shown, tags or fusion partners need not be part of it.

Take “E-cadherin (human (endogenous in MCF-10A))”: the binding result is listed as “binds”.

The values are drawn from paper doi:10.1101/2023.05.19.541433.
